This is one part of the list.

The subject of this experiment is Caenorhabditis elegans N2. Briefly: aldicarb interaction hit call (worm growth perturbed in combination with 10 uM aldicarb in both replicates, no effect as single agent) (binary (1 = interacts)); higher = interacts with aldicarb (growth perturbed). The settings on record: first compound 1.5 µM; aldicarb concentration 10 µM; 6 days; 20 °C.
Take `CSc1ccccc1C(=O)NCCSC1CCCCC1` [wact-125] + CNC(=O)O/N=C/C(C)(C)SC [aldicarb]: the “aldicarb interaction hit call” value was inactive: 0.

Consider `CN(CC1CC=CCC1)CC1CCN(CCc2cccc(F)c2)CC1` (stereo not given) [wact-259] + CNC(=O)O/N=C/C(C)(C)SC [aldicarb], for which the “aldicarb interaction hit call” value is inactive: 0.

Consider `CCN(Cc1cccc2c1OCO2)CC1CCCN(CCc2cccc(F)c2)C1` (stereo not given) [wact-332] + CNC(=O)O/N=C/C(C)(C)SC [aldicarb], for which the “aldicarb interaction hit call” value is inactive: 0.

For the compound `COCCOC1CCN(Cc2cn(-c3ccc(C)cc3)nc2-c2ccc(F)cc2)CC1` [wact-318] + CNC(=O)O/N=C/C(C)(C)SC [aldicarb], the “aldicarb interaction hit call” value was inactive: 0.

For the compound `CCNCc1ccc(-c2ccc(Br)cc2C)o1.Cl` [wact-202] + CNC(=O)O/N=C/C(C)(C)SC [aldicarb], the “aldicarb interaction hit call” value was inactive: 0.

For the compound `O=C(c1ccc(-c2ccccc2)cc1)C1CCCN(C2CCOCC2)C1` (stereo not given) [wact-298] + CNC(=O)O/N=C/C(C)(C)SC [aldicarb], the “aldicarb interaction hit call” value is inactive: 0.

With `Brc1ccc(OCCCCCN2CCOCC2)cc1` [wact-410] + CNC(=O)O/N=C/C(C)(C)SC [aldicarb], the “aldicarb interaction hit call” value is inactive: 0.

`O=C(Nc1ccc(Br)cn1)c1cc2ccccc2o1` [wact-624] + CNC(=O)O/N=C/C(C)(C)SC [aldicarb]: the “aldicarb interaction hit call” value is inactive: 0.

As for `CCCCSc1ccc(NCCC(=O)c2ccco2)cc1` [wact-512] + CNC(=O)O/N=C/C(C)(C)SC [aldicarb], the “aldicarb interaction hit call” value is inactive: 0.

For the compound `CN(C)Cn1c2ccccc2c2ccccc21` [wact-36] + CNC(=O)O/N=C/C(C)(C)SC [aldicarb], the “aldicarb interaction hit call” value was inactive: 0.
